In the supplement of paper PMC10849652:
The other results are listed elsewhere or left out.

By UniProt entry, the sequences of proteins in these tests, tags left out. Where a name states a change or a piece, a line headed by the entry shows the natural chain unless it says otherwise.
UniProt Q92667: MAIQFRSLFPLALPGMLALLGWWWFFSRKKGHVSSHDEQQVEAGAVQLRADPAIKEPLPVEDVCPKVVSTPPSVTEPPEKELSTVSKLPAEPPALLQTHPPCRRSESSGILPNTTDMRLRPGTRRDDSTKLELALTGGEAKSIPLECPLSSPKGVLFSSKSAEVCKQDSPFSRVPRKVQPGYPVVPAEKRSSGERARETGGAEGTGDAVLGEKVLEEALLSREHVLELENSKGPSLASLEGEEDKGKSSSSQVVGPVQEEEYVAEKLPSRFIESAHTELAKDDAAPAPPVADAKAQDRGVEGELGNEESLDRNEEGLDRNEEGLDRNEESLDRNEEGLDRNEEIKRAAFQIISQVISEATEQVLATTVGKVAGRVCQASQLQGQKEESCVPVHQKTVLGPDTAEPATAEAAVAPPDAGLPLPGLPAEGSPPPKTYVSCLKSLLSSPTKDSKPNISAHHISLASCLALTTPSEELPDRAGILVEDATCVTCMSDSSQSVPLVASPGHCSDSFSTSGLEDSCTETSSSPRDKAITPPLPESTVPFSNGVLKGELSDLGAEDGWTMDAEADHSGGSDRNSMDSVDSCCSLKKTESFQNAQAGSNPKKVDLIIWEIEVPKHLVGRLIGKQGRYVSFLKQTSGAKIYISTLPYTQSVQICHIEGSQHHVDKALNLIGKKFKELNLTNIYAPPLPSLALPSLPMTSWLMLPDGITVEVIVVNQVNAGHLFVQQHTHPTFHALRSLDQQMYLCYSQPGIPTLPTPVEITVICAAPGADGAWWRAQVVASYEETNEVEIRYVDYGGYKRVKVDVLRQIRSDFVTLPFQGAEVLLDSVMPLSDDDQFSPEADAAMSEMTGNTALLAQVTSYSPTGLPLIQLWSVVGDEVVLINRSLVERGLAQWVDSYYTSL
UniProt O60488: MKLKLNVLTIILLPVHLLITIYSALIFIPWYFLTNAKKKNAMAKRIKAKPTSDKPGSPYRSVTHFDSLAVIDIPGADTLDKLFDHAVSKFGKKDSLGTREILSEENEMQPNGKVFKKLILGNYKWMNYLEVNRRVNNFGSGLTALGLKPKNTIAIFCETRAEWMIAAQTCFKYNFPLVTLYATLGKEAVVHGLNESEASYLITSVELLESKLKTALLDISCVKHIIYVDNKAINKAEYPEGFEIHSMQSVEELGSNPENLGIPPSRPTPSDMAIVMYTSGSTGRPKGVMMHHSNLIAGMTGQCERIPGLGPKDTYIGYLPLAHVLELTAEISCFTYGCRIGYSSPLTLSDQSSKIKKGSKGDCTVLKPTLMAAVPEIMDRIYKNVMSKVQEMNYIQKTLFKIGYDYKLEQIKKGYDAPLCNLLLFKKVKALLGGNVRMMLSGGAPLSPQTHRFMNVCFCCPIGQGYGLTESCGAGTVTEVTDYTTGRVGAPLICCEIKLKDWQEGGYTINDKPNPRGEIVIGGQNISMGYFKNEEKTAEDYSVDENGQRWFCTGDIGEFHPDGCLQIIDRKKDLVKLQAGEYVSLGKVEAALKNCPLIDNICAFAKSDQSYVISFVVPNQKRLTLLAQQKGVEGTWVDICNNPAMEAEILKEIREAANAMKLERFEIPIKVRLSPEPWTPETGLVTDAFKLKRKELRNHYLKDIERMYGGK
UniProt Q99943: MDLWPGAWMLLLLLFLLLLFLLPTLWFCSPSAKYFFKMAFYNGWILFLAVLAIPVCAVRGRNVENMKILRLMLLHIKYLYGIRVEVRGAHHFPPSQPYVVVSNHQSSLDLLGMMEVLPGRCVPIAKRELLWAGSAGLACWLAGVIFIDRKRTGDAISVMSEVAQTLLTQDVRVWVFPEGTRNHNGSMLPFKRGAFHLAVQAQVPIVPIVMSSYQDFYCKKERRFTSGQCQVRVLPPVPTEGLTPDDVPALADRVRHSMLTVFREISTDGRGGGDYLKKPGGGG
UniProt Q13443: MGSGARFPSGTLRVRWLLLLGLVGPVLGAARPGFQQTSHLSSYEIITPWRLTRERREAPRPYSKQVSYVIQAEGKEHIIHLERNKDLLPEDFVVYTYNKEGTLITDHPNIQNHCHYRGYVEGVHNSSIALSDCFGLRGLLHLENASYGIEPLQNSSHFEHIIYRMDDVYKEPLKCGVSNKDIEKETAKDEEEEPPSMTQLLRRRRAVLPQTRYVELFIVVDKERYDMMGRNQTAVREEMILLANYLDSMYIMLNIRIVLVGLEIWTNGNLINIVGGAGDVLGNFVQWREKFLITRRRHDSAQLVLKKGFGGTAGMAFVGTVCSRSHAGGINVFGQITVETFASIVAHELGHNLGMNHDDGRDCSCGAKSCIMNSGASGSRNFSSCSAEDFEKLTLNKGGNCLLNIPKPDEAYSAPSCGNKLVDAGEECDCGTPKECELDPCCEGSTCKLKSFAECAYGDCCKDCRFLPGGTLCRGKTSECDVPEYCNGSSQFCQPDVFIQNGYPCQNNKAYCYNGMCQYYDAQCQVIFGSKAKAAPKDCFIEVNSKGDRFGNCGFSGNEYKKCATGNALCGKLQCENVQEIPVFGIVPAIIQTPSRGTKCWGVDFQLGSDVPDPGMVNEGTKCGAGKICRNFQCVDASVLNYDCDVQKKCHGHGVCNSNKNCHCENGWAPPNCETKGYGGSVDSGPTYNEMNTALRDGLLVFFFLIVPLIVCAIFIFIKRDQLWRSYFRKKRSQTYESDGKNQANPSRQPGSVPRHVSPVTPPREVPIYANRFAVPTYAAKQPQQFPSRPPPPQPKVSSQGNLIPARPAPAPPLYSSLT
UniProt O00154: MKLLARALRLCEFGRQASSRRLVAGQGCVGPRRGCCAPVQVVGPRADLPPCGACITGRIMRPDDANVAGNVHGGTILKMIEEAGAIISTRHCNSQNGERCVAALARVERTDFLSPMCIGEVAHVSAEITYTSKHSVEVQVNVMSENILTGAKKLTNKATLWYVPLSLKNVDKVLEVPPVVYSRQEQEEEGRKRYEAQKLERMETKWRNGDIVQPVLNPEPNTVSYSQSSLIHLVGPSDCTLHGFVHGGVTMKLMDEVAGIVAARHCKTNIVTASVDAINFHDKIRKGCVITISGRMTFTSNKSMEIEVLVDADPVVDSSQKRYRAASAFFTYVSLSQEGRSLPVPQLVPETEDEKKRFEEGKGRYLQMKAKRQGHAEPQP
UniProt O14672: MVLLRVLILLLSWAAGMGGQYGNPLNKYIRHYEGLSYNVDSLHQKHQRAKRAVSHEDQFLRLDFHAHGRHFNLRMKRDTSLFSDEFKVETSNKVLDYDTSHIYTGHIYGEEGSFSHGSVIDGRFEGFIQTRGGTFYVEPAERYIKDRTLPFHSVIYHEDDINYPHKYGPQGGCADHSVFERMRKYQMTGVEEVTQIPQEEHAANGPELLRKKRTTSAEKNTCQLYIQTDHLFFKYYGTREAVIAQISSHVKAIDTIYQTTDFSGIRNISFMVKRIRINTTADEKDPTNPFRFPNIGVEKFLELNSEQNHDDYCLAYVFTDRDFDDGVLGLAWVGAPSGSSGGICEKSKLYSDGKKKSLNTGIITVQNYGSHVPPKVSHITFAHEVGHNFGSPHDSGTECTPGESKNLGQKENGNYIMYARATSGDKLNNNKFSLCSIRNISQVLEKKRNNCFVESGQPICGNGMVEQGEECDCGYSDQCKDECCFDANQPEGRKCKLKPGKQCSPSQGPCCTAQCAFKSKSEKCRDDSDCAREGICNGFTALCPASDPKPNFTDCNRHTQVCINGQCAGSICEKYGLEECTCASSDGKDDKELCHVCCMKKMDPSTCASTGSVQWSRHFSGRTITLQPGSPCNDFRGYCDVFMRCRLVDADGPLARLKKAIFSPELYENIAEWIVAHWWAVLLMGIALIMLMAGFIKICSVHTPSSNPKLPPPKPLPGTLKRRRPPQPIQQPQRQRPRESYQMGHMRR
UniProt Q12904: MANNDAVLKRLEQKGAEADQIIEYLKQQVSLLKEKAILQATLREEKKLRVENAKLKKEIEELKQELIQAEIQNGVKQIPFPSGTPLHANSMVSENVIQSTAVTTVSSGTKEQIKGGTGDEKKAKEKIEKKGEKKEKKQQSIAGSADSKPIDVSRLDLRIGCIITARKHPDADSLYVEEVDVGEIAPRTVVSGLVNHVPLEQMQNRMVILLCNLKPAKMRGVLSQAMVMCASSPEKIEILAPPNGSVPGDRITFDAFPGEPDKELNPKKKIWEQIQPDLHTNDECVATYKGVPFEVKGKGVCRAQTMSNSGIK
UniProt O96019, whole entry, looked up: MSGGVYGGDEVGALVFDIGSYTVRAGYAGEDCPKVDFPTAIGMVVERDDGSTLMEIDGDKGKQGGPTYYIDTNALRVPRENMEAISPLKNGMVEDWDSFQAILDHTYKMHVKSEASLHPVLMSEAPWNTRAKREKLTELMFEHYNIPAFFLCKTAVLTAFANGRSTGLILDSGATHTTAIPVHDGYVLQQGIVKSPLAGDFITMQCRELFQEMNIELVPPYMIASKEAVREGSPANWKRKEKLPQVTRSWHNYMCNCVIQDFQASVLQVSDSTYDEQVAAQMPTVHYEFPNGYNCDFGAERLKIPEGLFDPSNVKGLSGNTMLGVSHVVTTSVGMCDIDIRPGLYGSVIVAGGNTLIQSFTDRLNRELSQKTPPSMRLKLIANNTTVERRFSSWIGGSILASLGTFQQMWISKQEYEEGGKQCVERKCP
UniProt Q9UPW5: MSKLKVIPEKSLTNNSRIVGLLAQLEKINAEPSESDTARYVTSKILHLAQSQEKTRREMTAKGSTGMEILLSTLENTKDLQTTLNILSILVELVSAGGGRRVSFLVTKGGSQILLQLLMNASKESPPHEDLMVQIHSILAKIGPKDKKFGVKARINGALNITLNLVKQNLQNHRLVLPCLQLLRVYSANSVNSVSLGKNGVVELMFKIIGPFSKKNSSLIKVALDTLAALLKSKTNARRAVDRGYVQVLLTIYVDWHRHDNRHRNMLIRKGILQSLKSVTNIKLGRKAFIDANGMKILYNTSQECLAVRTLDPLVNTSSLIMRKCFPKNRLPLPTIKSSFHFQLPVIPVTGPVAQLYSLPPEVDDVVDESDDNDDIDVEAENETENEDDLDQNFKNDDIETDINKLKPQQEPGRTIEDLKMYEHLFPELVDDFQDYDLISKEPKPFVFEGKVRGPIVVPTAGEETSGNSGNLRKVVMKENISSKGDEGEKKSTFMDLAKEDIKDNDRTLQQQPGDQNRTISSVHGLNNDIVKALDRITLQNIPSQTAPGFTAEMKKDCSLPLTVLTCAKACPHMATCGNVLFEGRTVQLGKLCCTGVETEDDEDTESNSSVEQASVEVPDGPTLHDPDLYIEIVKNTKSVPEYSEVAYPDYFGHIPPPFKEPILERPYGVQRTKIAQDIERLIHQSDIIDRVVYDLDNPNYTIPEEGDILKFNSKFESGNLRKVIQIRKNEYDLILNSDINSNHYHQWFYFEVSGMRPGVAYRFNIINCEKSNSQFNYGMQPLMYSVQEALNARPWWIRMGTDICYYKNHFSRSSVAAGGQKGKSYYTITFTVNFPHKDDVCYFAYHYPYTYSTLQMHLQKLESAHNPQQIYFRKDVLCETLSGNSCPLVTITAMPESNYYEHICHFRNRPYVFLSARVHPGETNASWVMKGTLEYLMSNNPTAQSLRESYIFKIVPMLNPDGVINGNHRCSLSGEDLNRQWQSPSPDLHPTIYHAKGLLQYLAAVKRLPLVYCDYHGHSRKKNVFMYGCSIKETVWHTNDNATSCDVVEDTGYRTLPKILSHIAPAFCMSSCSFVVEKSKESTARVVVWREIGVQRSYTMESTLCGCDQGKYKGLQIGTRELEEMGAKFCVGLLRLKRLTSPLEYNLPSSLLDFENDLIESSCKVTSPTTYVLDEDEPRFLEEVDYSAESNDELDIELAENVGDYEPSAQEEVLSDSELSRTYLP
UniProt P07311: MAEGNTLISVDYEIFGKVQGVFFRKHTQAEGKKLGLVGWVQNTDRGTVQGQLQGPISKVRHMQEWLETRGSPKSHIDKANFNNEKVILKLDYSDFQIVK
UniProt O00116: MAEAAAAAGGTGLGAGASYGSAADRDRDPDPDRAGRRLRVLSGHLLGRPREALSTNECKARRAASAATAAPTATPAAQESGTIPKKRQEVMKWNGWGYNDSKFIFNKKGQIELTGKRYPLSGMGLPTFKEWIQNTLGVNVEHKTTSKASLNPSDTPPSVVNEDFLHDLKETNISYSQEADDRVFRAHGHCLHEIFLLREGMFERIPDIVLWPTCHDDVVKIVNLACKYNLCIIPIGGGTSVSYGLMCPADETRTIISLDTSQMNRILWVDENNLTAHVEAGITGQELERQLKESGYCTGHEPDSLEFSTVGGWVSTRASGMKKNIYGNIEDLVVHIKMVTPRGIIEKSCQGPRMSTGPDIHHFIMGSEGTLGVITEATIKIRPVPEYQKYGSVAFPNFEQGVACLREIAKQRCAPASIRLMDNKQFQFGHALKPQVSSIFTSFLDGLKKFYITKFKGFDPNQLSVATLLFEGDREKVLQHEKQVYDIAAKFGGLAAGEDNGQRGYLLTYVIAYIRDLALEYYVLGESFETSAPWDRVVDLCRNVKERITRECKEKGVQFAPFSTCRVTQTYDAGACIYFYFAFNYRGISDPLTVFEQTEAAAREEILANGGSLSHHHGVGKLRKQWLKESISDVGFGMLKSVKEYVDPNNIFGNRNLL

Tests used:
Assay in all cases: log2 fold change, soluble protein after heating vs DMSO (PISA); higher = thermal stabilisation; K562 lysate, 10 uM; active = over 0.2 and 3.5 SD of the protein, either way, in both replicates (recomputed)
vemurafenib = compound: CCCS(=O)(=O)Nc1ccc(F)c(C(=O)c2c[nH]c3ncc(-c4ccc(Cl)cc4)cc23)c1F [vemurafenib]
How it was run: (§1)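 Pellets of K562 cells were dounce-homogenised in PBS pH 7.4 with 1 mM MgCl2, and the crude extract was held at 1 mg/mL protein for a 30 min treatment with 10 μM compound. Aliquots were heated for 3 min over 48°C-58°C and pooled before NP-40 was added to 0.5% at 4°C. The supernatant from 21,000xg for 90 min was quantified by TMTpro 16plex LC-MS/MS with channel sums equalised. Values are reported from duplicates as log-two fold change in thermal stability relative to solvent controls.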

[1] = compound: CCCS(=O)(=O)Nc1ccc(F)c(C(=O)c2c[nH]c3ncc(Cl)cc23)c1F
How it was run: as §1

barasertib = compound: CCN(CCCOc1ccc2c(Nc3cc(CC(=O)Nc4cccc(F)c4)[nH]n3)ncnc2c1)CCOP(=O)(O)O [barasertib]
How it was run: as §1

[2] = compound: CC[C@@H]1C(=O)N(C)c2cnc(Nc3ccc(C(=O)NC4CCN(C)CC4)cc3OC)nc2N1C1CCCC1
How it was run: as §1

volasertib = compound: CC[C@@H]1C(=O)N(C)c2cnc(Nc3ccc(C(=O)N[C@H]4CC[C@H](N5CCN(CC6CC6)CC5)CC4)cc3OC)nc2N1C(C)C [volasertib]
How it was run: as §1

[3] = compound: CCn1c(C(=O)N(C2CC2)C2CC2)cc2c3c(ncn3C)c(Nc3cc(C)n(C)n3)nc21
How it was run: as §1

[4] = compound: CCn1cc(-c2ccnc3[nH]c(-c4cccc(CN(C)C)c4)cc23)c(-c2ccc(NC(=O)N(C)C)cc2)n1
How it was run: as §1

[5] = compound: CN1CCC(CNc2ccc3ncc(-c4cccc(OC(F)(F)F)c4)n3n2)CC1
How it was run: as §1

saracatinib = compound: CN1CCN(CCOc2cc(OC3CCOCC3)c3c(Nc4c(Cl)ccc5c4OCO5)ncnc3c2)CC1 [saracatinib]
How it was run: as §1

sotrastaurin = compound: CN1CCN(c2nc(C3=C(c4c[nH]c5ccccc45)C(=O)NC3=O)c3ccccc3n2)CC1 [sotrastaurin]
How it was run: as §1

alvocidib = compound: CN1CC[C@H](c2c(O)cc(O)c3c(=O)cc(-c4ccccc4Cl)oc23)[C@H](O)C1 [alvocidib]
How it was run: as §1

Tubastatin A = compound: CN1CCc2c(c3ccccc3n2Cc2ccc(C(=O)NO)cc2)C1 [Tubastatin A]
How it was run: as §1

[6] = compound: CNC(=O)C1=CC=CC=C1NC2=NC(=NC=C2Cl)NC3=C(C=C(C=C3)N4CCOCC4)OC
How it was run: as §1

defactinib = compound: CNC(=O)c1ccc(Nc2ncc(C(F)(F)F)c(NCc3nccnc3N(C)S(C)(=O)=O)n2)cc1 [defactinib]
How it was run: as §1

[7] = compound: CNc1nc(-c2ccc3c(N)n[nH]c3c2)cc(N2C[C@@H](C(=O)NC3CCCCC3)CC[C@H]2C)n1
How it was run: as §1

encorafenib = compound: COC(=O)N[C@@H](C)CNc1nccc(-c2cn(C(C)C)nc2-c2cc(Cl)cc(NS(C)(=O)=O)c2F)n1 [encorafenib]
How it was run: as §1

[8] = compound: COC(=O)[C@H](CCSC)NC(=O)C1=C(C=C(C=C1)NC[C@H](CS)N)C2=CC=CC=C2
How it was run: as §1

alisertib = compound: COc1cc(Nc2ncc3c(n2)-c2ccc(Cl)cc2C(c2c(F)cccc2OC)=NC3)ccc1C(=O)O [alisertib]
How it was run: as §1

[9] = compound: COc1cc2nc(-c3cc(F)ccc3O)nc(N[C@@H]3CNC[C@H]3C(C)(C)O)c2cc1OC
How it was run: as §1

gefitinib = compound: COc1cc2ncnc(Nc3ccc(F)c(Cl)c3)c2cc1OCCCN1CCOCC1 [gefitinib]
How it was run: as §1

Measured: log2 fold change

AKAP1 (UniProt Q92667)
inactive: vemurafenib 0.108 | [1] 0 | barasertib 0.017 | [2] -0.091 | volasertib -0.048 | [3] 0.035 | [4] -0.024 | [5] -0.042 | saracatinib 0.02 | sotrastaurin -0.03 | alvocidib 0.003 | Tubastatin A -0.034 | [6] 0.006 | defactinib 0.011 | [7] 0.013 | encorafenib -0.033 | [8] 0.086 | alisertib 0.004 | [9] 0.032 | gefitinib 0.018

ACSL4 (UniProt O60488)
inactive: vemurafenib 0.061 | [1] -0.007 | barasertib -0.006 | [2] -0.029 | volasertib -0.001 | [3] 0.036 | [4] 0.008 | [5] -0.02 | saracatinib 0.047 | sotrastaurin 0.043 | alvocidib 0.023 | Tubastatin A -0.06 | [6] 0.047 | defactinib 0.054 | [7] -0.034 | encorafenib 0.003 | [8] 0.073 | alisertib -0.017 | [9] 0.019 | gefitinib 0.014

AGPAT1 (UniProt Q99943)
inactive: vemurafenib 0.008 | [1] 0.016 | barasertib 0.038 | [2] -0.013 | volasertib 0.006 | [3] -0.004 | [4] 0.068 | [5] -0.049 | saracatinib 0.038 | sotrastaurin -0.009 | alvocidib -0.002 | Tubastatin A -0.015 | [6] 0.052 | defactinib -0.007 | [7] -0.033 | encorafenib 0.075 | [8] -0.016 | alisertib -0.015 | [9] -0.232 | gefitinib 0.028

AKR7A2 (UniProt O43488)
inactive: vemurafenib -0.024 | [1] -0.011 | barasertib 0 | [2] 0.034 | volasertib -0.014 | [3] 0.02 | [4] -0.019 | [5] -0.026 | saracatinib -0.027 | sotrastaurin 0.026 | alvocidib 0.014 | Tubastatin A 0.002 | [6] 0.041 | defactinib -0.01 | [7] 0.022 | encorafenib -0.041 | [8] 0.027 | alisertib -0.014 | [9] -0.002 | gefitinib -0.05

ACTG1 (UniProt I3L4N8)
inactive: vemurafenib 0.131 | [1] -0.062 | barasertib 0.218 | [2] -0.208 | volasertib -0.006 | [3] -0.384 | [4] 0.94 | [5] -0.091 | saracatinib -0.002 | sotrastaurin 0.001 | alvocidib 0.089 | Tubastatin A 0.119 | [6] 0.046 | defactinib -0.142 | [7] -0.005 | encorafenib 0.209 | [8] 0 | alisertib -0.198 | [9] -0.003 | gefitinib -0.115

AKR1B1 (UniProt P15121)
inactive: vemurafenib 0.006 | [1] 0.024 | barasertib 0.02 | [2] 0.072 | volasertib -0.015 | [3] 0.008 | [4] -0.054 | [5] 0.116 | saracatinib 0.065 | sotrastaurin -0.012 | alvocidib 0.033 | Tubastatin A 0.023 | [6] -0.003 | defactinib -0.01 | [7] -0.072 | encorafenib 0.019 | [8] 0.009 | alisertib 0.015 | [9] -0.008 | gefitinib -0.016

ADAM9 (UniProt Q13443)
inactive: vemurafenib 0.08 | [1] -0.01 | barasertib -0.013 | [2] 0.092 | volasertib 0.002 | [3] -0.005 | [4] 0.058 | [5] 0.047 | saracatinib 0.02 | sotrastaurin -0.016 | alvocidib -0.013 | Tubastatin A 0.023 | [6] -0.001 | defactinib 0.055 | [7] -0.032 | encorafenib 0.022 | [8] -0.004 | alisertib 0.011 | [9] -0.059 | gefitinib -0.018

ACOT7 isoform 7 (UniProt O00154)
inactive: vemurafenib -0.017 | [1] 0.004 | barasertib 0.005 | [2] 0.018 | volasertib 0.007 | [3] -0.015 | [4] -0.028 | [5] 0.055 | saracatinib 0.005 | sotrastaurin -0.072 | alvocidib -0.015 | Tubastatin A 0.043 | [6] 0.022 | defactinib -0.002 | [7] 0.026 | encorafenib 0.022 | [8] -0.02 | alisertib -0.013 | [9] 0.012 | gefitinib -0.027

ADAM10 (UniProt O14672)
inactive: vemurafenib 0.032 | [1] 0.011 | barasertib -0.011 | [2] 0.033 | volasertib 0 | [3] 0.006 | [4] -0.228 | [5] 0.066 | saracatinib 0 | sotrastaurin 0.045 | alvocidib 0 | Tubastatin A 0.017 | [6] 0.001 | defactinib -0.016 | [7] -0.067 | encorafenib 0.018 | [8] -0.048 | alisertib -0.047 | [9] 0.014 | gefitinib -0.044

2 entries picked at random from those above, as already listed:
AKR1B1 (UniProt P15121)
inactive: vemurafenib 0.006 | [1] 0.024 | barasertib 0.02 | [2] 0.072 | volasertib -0.015 | [3] 0.008 | [4] -0.054 | [5] 0.116 | saracatinib 0.065 | sotrastaurin -0.012 | alvocidib 0.033 | Tubastatin A 0.023 | [6] -0.003 | defactinib -0.01 | [7] -0.072 | encorafenib 0.019 | [8] 0.009 | alisertib 0.015 | [9] -0.008 | gefitinib -0.016

ACOT7 isoform 7 (UniProt O00154)
inactive: vemurafenib -0.017 | [1] 0.004 | barasertib 0.005 | [2] 0.018 | volasertib 0.007 | [3] -0.015 | [4] -0.028 | [5] 0.055 | saracatinib 0.005 | sotrastaurin -0.072 | alvocidib -0.015 | Tubastatin A 0.043 | [6] 0.022 | defactinib -0.002 | [7] 0.026 | encorafenib 0.022 | [8] -0.02 | alisertib -0.013 | [9] 0.012 | gefitinib -0.027

The list goes on.

AIMP1 isoform 2 (UniProt Q12904)
inactive: vemurafenib 0.001 | [1] 0.018 | barasertib 0.015 | [2] -0.036 | volasertib -0.057 | [3] 0.025 | [4] -0.024 | [5] -0.081 | saracatinib 0.023 | sotrastaurin -0.001 | alvocidib 0.056 | Tubastatin A -0.118 | [6] 0.01 | defactinib 0.018 | [7] 0.028 | encorafenib -0.005 | [8] 0.11 | alisertib 0.004 | [9] -0.009 | gefitinib -0.029

ACTL6A (UniProt O96019)
inactive: vemurafenib 0.019 | [1] 0.012 | barasertib -0.011 | [2] 0.016 | volasertib 0 | [3] -0.005 | [4] -0.031 | [5] 0.007 | saracatinib 0.011 | sotrastaurin 0 | alvocidib -0.009 | Tubastatin A 0.014 | [6] -0.039 | defactinib 0.012 | [7] 0.018 | encorafenib -0.012 | [8] 0.015 | alisertib -0.032 | [9] -0.005 | gefitinib -0.005

AGTPBP1 (UniProt Q9UPW5)
inactive: vemurafenib 0.151 | [1] 0.075 | barasertib -0.223 | [2] 0.036 | volasertib -0.089 | [3] -0.013 | [4] 0.013 | saracatinib 0.108 | sotrastaurin -0.126 | alvocidib 0.034 | Tubastatin A 0.046 | [6] 0.024 | defactinib -0.058 | [7] -0.001 | encorafenib -0.014 | [8] -0.031 | alisertib 0.097 | [9] -0.039 | gefitinib -0.004
active: [5] -0.409

AGO3 (UniProt Q9H9G7)
inactive: vemurafenib 0 | [1] 0.014 | barasertib 0.025 | [2] 0.033 | volasertib 0.019 | [3] -0.029 | [4] -0.014 | [5] 0.067 | saracatinib -0.003 | sotrastaurin 0.025 | alvocidib -0.005 | Tubastatin A 0.046 | [6] -0.011 | defactinib -0.01 | [7] 0.052 | encorafenib 0.012 | [8] -0.024 | alisertib -0.016 | [9] 0.021 | gefitinib 0.043

ACTR3 (UniProt P61158)
inactive: vemurafenib 0.011 | [1] 0.052 | barasertib -0.026 | [2] 0.021 | volasertib 0.016 | [3] -0.013 | [4] 0.024 | [5] 0.041 | saracatinib -0.033 | sotrastaurin 0.02 | alvocidib -0.007 | Tubastatin A 0.013 | [6] -0.011 | defactinib -0.005 | [7] -0.08 | encorafenib 0 | [8] -0.025 | alisertib 0.01 | [9] -0.031 | gefitinib -0.013

ACYP1 (UniProt P07311)
inactive: vemurafenib -0.038 | [1] -0.024 | barasertib 0.024 | [2] -0.005 | volasertib 0.032 | [3] 0.006 | [5] -0.082 | saracatinib 0.003 | sotrastaurin -0.032 | alvocidib 0.084 | Tubastatin A 0.008 | [6] -0.002 | defactinib 0.014 | [7] -0.018 | encorafenib -0.018 | [8] -0.016 | alisertib 0.012 | [9] -0.008 | gefitinib 0.026
active: [4] 0.284

AGPS (UniProt O00116)
inactive: vemurafenib 0.028 | [1] 0.008 | barasertib -0.021 | [2] 0.06 | volasertib 0.011 | [3] 0.025 | [4] -0.082 | [5] 0.012 | saracatinib -0.009 | sotrastaurin -0.016 | alvocidib -0.011 | Tubastatin A 0.039 | [6] -0.046 | defactinib -0.003 | [7] 0.011 | encorafenib -0.005 | [8] -0.125 | alisertib 0.035 | [9] -0.03 | gefitinib -0.002
